Record: PubChem BioAssay AID743458 (Peter MacCallum Cancer Centre, 2014)
In all, the deposit lists about 1,800 reagents; below is a random part of them. Of all reagents, 732 (41%) got an active call. 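Calls are per siRNA reagent; a gene was deemed confirmed only if most of its four siRNAs scored.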 A number with no mark means an inactive call. Reagents against one gene are numbered here.

- Test: 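Retest earlier hits with independent siRNAs per gene for restoring vorinostat sensitivity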 (follow-up of hits)
- Cells: human HCT116-VR colon cancer cells made resistant to vorinostat
- Reagents: single siRNA or pool against human genes, 25 nM per single siRNA
- Time to read-out: about 72 h after transfection, including 24 h of drug
- Conditions: vorinostat, 2.5 µM final, for 24 h
- Detection: 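Cell viability by fluorescence and apoptosis by caspase 3/7 luminescence under vorinostat, background-corrected, averaged across two plate copies and given as fold change versus mock transfection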
- Reading the numbers: viability relative to mock: higher = more living cells than mock; caspase activity relative to mock: higher = more apoptosis than mock
- Hit rule: 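Active means a reduced-viability or caspase-activation class, anything else inactive; classes could only be given to wells that looked healthy when left untreated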

no.	gene symbol	reagent no.	viability relative to mock	caspase activity relative to mock	viability hit class	caspase hit class
1	B4GALT4	1	0.96	1.27	no change	no change
2	B4GALT4	2	0.72	1.27	no change	no change
3	B4GALT4	3	0.74	1.37	no change	no change
4	B4GALT4	4	0.87	1.02	no change	no change
5	MSS51	1	0.98	1.16	no change	no change
6	MSS51	2	0.74	1.67	no change	no change
7	MSS51	3	0.94	1.17	no change	no change
8	MSS51	4	0.41 (active)	4.04	reduced viability	caspase activation
9	SIN3A	1	0.88	2.41	no change	no change
10	SIN3A	2	1.08	1.77	no change	no change
11	SIN3A	3	0.49 (active)	5.6	reduced viability	caspase activation
12	SIN3A	4	0.74 (active)	4.88	no change	caspase activation
13	GLI1	1	0.84 (active)	2.76	no change	caspase activation
14	GLI1	2	0.9 (active)	2.79	no change	caspase activation
15	GLI1	3	0.5 (active)	0.6	reduced viability	no change
16	GLI1	4	0.74 (active)	3.31	no change	caspase activation
17	NYX	1	1.03	1.16	no change	no change
18	NYX	2	0.18 (active)	4.38	reduced viability	caspase activation
19	NYX	3	0.67	2.01	no change	no change
20	NYX	4	0.92	1.02	no change	no change
21	TMEM208	1	0.91	1.13	no change	no change
22	TMEM208	2	1	1	no change	no change
23	TMEM208	3	0.86	1.19	no change	no change
24	TMEM208	4	1	1.77	no change	no change

Called active, among the entries above:
gene symbol	reagent no.	viability relative to mock	caspase activity relative to mock	viability hit class	caspase hit class
MSS51	4	0.41 (active)	4.04	reduced viability	caspase activation
SIN3A	3	0.49 (active)	5.6	reduced viability	caspase activation
SIN3A	4	0.74 (active)	4.88	no change	caspase activation
GLI1	1	0.84 (active)	2.76	no change	caspase activation
GLI1	2	0.9 (active)	2.79	no change	caspase activation
GLI1	3	0.5 (active)	0.6	reduced viability	no change
GLI1	4	0.74 (active)	3.31	no change	caspase activation
NYX	2	0.18 (active)	4.38	reduced viability	caspase activation
